# Source: US20180244784A1
# Protein sequences, listed by entry. Tags and fused reporters are not part of them. Lines headed by an entry give the natural chain unless they say otherwise; changes in a name come on top.
# UniProt P35968: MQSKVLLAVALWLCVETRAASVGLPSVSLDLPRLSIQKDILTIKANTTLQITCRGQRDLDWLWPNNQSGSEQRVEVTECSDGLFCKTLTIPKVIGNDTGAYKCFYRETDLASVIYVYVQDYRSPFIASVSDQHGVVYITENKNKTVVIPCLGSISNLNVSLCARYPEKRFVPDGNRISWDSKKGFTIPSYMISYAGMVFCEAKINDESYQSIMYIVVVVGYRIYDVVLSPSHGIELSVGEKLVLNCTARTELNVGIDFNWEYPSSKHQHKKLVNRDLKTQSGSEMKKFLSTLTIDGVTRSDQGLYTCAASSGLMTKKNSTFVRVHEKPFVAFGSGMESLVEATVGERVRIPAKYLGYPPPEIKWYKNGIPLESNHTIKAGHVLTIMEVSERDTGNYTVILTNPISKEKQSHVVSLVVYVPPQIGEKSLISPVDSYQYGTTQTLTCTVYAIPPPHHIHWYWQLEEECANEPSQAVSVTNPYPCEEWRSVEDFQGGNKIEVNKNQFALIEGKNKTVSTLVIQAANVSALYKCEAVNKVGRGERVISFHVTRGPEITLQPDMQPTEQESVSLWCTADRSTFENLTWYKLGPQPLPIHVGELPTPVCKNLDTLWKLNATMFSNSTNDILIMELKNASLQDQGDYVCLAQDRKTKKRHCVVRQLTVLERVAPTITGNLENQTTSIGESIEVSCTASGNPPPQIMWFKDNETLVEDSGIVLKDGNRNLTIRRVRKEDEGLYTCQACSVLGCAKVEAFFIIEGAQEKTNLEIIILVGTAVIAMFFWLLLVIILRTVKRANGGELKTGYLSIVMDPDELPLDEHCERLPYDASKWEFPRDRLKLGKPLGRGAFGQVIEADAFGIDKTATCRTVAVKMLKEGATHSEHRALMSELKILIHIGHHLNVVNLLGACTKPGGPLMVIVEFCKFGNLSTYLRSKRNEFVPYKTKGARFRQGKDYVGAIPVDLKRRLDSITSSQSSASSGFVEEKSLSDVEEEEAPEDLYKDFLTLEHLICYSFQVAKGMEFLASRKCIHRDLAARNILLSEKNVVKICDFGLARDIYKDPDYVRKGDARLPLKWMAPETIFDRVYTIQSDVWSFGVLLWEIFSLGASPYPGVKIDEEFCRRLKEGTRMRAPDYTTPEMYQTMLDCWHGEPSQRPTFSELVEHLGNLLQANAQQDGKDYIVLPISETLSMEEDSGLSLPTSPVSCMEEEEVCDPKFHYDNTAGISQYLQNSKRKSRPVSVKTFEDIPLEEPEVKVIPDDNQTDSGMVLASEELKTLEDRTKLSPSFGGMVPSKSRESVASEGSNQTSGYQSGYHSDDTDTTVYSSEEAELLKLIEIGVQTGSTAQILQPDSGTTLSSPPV
# No constants are given. Whether binding was seen depends on the method and setting. Some results given as binding are weak or reduced against the parent protein; the word gives no strength.
# B1: free AB1 antibody (unlabelled competitor in FIG. 8A) (VHH)
# VHH: QVQLVESGGGLVQAGGSLRLSCAASGRAFSSYAMGWFRQAPGKERELVAAISWSDDSTYYANSVKGRFTISRDNAKSAVYLQMNSLKPEDTAVYYCAAHKSLQRPDEYTYWGQGTQVTVSS
# Biological target: human VEGFR2 (KDR) expressed on 293/KDR cells (human) (UniProt P35968)
# Assay: competition flow cytometry on 293/KDR cells, 1 µg/mL Biotin-AB1 plus 20- or 200-fold unlabelled AB1 [panel Unlabelled AB1]
binder,measurement,value
B1,binding,binds
